Reference: patent US9579380B2, “Microporation of tissue for delivery of bioactive agents” (priority 1996, dated 2017)

Tested on: skin of the subjects left forearm

CCN(CC)CC(=O)Nc1c(C)cccc1C [lidocaine]
numbness scale (10 = no numbness, 0 = complete numbness) (Site 1 control, no poration, no sonic energy, at approximately 20 minutes): 3
diameter of totally numb circle (Site 2 porated plus ultrasound, after the second 5 minute application): about 1.2 cm
diameter of circle outside which no numbness (Site 2 porated plus ultrasound, first 5 minute application): 2.5 cm
